Chains of the proteins cited; added tags and fusions are not shown. Lines headed by an entry give the natural chain unless they say otherwise; changes in a name come on top.
UniProt Q8IZD2: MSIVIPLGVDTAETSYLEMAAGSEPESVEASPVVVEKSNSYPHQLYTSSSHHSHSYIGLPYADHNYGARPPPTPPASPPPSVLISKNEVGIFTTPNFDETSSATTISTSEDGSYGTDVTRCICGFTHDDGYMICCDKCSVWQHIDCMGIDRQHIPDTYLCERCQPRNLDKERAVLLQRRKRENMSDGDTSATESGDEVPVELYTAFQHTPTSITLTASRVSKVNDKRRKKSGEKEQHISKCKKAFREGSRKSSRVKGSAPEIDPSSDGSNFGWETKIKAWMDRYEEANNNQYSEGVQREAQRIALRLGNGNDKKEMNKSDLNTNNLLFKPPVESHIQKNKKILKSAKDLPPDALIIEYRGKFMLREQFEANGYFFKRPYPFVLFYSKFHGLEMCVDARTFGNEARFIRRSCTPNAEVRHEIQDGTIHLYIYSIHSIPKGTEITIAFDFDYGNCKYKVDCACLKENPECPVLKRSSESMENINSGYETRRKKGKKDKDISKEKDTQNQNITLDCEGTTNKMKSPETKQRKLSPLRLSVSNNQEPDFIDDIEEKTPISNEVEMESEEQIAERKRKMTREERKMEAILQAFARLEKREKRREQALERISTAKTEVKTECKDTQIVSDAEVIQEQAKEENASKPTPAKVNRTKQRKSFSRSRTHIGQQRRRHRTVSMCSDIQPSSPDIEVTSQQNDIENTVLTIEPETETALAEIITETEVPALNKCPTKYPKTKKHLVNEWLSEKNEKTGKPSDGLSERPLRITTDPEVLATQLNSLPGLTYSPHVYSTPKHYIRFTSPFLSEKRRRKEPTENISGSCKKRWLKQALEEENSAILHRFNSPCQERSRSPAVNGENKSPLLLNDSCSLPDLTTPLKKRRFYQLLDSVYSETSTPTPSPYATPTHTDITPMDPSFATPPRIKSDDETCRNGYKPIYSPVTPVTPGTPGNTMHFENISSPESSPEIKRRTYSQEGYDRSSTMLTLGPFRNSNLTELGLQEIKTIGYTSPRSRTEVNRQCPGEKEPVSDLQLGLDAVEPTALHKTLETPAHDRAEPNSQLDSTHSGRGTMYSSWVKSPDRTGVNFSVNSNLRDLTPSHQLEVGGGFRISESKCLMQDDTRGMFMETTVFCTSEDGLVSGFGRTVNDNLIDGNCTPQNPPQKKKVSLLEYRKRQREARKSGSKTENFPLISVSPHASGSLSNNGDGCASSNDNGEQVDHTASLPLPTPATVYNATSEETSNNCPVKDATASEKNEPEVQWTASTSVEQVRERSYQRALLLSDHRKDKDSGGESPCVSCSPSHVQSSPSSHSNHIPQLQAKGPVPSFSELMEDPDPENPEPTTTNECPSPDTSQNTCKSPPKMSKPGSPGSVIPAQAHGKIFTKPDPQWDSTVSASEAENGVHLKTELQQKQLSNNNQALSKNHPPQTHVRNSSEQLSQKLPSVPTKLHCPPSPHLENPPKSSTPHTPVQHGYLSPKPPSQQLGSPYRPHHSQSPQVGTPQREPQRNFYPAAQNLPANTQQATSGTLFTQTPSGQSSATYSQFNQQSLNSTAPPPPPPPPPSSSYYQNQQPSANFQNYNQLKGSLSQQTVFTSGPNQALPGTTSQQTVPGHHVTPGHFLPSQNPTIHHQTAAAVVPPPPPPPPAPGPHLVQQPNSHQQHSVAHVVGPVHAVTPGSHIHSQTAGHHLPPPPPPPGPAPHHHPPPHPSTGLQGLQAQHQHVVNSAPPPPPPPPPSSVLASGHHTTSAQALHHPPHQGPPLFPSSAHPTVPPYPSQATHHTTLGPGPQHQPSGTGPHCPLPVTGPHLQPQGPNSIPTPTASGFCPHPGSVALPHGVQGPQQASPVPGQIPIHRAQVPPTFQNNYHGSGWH
UniProt O95786: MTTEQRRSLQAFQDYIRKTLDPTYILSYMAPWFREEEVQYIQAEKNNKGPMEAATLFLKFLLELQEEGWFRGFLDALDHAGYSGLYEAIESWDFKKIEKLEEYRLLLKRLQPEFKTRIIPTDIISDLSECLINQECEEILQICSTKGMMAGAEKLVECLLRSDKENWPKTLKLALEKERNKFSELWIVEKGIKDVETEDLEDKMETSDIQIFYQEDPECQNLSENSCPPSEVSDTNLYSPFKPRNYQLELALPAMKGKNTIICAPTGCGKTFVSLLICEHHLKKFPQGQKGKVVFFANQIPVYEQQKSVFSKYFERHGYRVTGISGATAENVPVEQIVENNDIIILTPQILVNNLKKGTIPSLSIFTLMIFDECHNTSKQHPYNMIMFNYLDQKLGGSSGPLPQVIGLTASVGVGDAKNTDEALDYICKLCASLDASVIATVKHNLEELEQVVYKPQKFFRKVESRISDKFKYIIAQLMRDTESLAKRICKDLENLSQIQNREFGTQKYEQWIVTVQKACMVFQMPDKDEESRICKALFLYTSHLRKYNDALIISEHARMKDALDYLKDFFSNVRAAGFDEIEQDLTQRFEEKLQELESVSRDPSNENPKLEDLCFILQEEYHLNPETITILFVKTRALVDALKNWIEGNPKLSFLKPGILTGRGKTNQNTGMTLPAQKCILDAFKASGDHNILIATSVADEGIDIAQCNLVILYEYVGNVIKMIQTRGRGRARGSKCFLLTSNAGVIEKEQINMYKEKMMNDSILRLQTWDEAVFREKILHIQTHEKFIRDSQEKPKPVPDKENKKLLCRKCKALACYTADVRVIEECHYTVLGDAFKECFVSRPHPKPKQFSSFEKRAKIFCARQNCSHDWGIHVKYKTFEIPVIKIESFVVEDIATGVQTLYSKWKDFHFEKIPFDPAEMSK

In article PMC5871759:

Biological target: truncated MLL5 mutant lacking the SET domain (MLL5-FLAG truncated vector) (human) (UniProt Q8IZD2)
Experiment: co-IP; HEK293T cotransfected with tagged plasmids, whole-cell extracts 48 h after transfection; lysis buffer 1% NP-40, 20 mM HEPES, 20 mM KCl, 150 mM NaCl, 5 mM EDTA, pH 7.4; Protein-G Sepharose with anti-FLAG or anti-V5, 4 °C; in Fig. 6b also with MLL5-HA plasmid (0, 1000, 3000 ng)

**Q.** Which binding does the source give for RIG-I-HA (from UniProt O95786 1-925) here?
**A.** no binding

Results are given in words; binding and its absence hold for the method and conditions named. Binding seen in cells or lysates may run through a third protein.
